Assay results reported in article PMC12043042 (Chemistry (Weinheim an Der Bergstrasse, Germany), 2025).
Some peptides are written in HELM: one residue between dots, names in brackets for other building blocks, links after the first $.

Experiment: general procedure: Fmoc solid-phase peptide synthesis; 2′-Cl-TrtCl polystyrene resin (1.1 mmol/g); HCTU/DIPEA
Conditions: whole synthesis; for isolated yield: overall, based on 100 % resin loading, scale of the general procedure 0.1 mmol

Substance	isolated mass	isolated yield
PEPTIDE1{G.F.G.G.I.A}$PEPTIDE1,PEPTIDE1,1:R1-6:R2$$$V2.0	15.6 mg	30%
PEPTIDE1{G.F.G.G.P.A}$PEPTIDE1,PEPTIDE1,1:R1-6:R2$$$V2.0	18.5 mg	38%
PEPTIDE1{G.F.[3Amb].I.A}$PEPTIDE1,PEPTIDE1,1:R1-5:R2$$$V2.0	16.7 mg	32%
PEPTIDE1{G.F.[3Amb].P.A}$PEPTIDE1,PEPTIDE1,1:R1-5:R2$$$V2.0	20.2 mg	40%
PEPTIDE1{G.F.[BB1].I.A}$PEPTIDE1,PEPTIDE1,1:R1-5:R2$$$V2.0	13.4 mg	25%
PEPTIDE1{G.F.[BB1].P.A}$PEPTIDE1,PEPTIDE1,1:R1-5:R2$$$V2.0	14.6 mg	28%
PEPTIDE1{G.F.[BB3].I.A}$PEPTIDE1,PEPTIDE1,1:R1-5:R2$$$V2.0	9.6 mg	17%
PEPTIDE1{G.F.[BB3].P.A}$PEPTIDE1,PEPTIDE1,1:R1-5:R2$$$V2.0	11.5 mg	21%
